The inconclusive results got no clear call from the source; some entries with a clear call stand among them for comparison. Potencies of inconclusive entries are doubtful fits and often do not repeat. Activity calls are given as the source filed them. Calls follow the shape of the dose curve; as a rule, active = well fitted curve in the direction sought with a large enough effect; inconclusive = small, poorly fitted or top-dose-only effect, or another doubt; inactive = no such curve, though single readings can be large or run the other way.
What follows are compounds tested against Lysosomal acid glucosylceramidase (Homo sapiens) (UniProt P04062) (assay: qHTS Assay for Inhibitors and Activators of N370S glucocerebrosidase as a Potential Chaperone Treatment of Gaucher Disease: Activity in Non-Mutant Spleen Using Alternate Substrate Confirmation for Probe SAR). Settings: human spleen homogenate, resorufin-glucoside fluorescence, 40 min; series mostly up to 57.5 µM; activity change, negative = inhibition: at the top concentration.
Description: NIH Chemical Genomics Center [NCGC] NIH Molecular Libraries Probe Production Centers Network [MLPCN] MLPCN Grant: MH086442-01 Assay Submitter (PI): Wei Zheng Glucocerebrosidase (GC) catalyzes the hydrolysis of beta-glucocerebroside to glucose and ceramide in lysosomes. Mutations in the glucocerebrosidase gene result in Gaucher disease, an autosomal recessive lysosomal storage disorder. Many of the mutations encountered in patients with Gaucher disease are missense alterations that may cause misfolding, decreased stability and/or mistrafficking of this lysosomal protein. […]
NCGC Assay Protocol Summary: This is a fluorogenic enzyme assay with resorufin-beta-D-glucopyranoside as the substrate and wildtype glucocerebrosidase from human spleen homogenate as the enzyme preparation. Upon the hydrolysis of this fluorogenic substrate, the resulting product, […] which can be detected by a standard fluorescence plate reader. […] The AC50 values were determined from concentration-response data modeled with the standard Hill equation. […] (5) Add 2 ul stop solution (1M NaOH and 1M Glycine mixture, pH 10) (6) Detect the assay plate in a ViewLux plate reader (PerkinElmer) with Ex=365 nm and Em=440nm. […]

Chains of the proteins cited; added tags and fusions are not shown. Lines headed by an entry give the natural chain unless they say otherwise; changes in a name come on top.
UniProt P04062: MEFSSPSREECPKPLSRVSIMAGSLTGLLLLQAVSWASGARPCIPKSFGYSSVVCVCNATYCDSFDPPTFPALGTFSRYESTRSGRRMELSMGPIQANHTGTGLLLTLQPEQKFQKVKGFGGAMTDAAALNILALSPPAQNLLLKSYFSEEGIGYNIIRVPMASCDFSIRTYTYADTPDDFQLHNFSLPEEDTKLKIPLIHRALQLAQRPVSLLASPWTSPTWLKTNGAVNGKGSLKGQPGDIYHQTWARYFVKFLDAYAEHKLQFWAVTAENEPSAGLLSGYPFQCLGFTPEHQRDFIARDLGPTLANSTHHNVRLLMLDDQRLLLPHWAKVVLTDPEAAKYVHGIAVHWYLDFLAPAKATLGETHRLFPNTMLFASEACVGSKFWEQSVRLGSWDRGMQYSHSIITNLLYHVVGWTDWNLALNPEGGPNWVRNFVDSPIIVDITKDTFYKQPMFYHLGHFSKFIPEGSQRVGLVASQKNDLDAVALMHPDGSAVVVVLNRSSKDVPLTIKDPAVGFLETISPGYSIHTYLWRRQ

SMILES | Potency | activity change, negative = inhibition
O=C(Nc1ccccc1Sc1ccccc1)c1cnn2c1NC(=C1CC1)C=C2C(F)F | inconclusive: 51.7 µM [activator, partial curve] | –
COc1ccc(NC(=O)c2cnn3c(C)cc(C)nc23)cc1 | – | inactive: -0.516%

Reference: PubChem BioAssay AID488853 (National Center for Advancing Translational Sciences (NCATS), 2010)
